Laboratory results: the supplement of paper PMC3682954
Where a name gives a salt, the structure may show the parent alone. ± gives the standard deviation of the averaged measurements. The list shows a part of the results. Many values rest on one well or one pass, so single values are uncertain.

Test system: RAW 264.7
Assay: HMGB1-induced TNF-alpha production relative to HMGB1-stimulated control; higher = more TNF-alpha secretion (less inhibition)
Conditions: stimulus: HMGB1 5 ug/ml, 18 h
[1] = compound concentration: 1 ug/ml

SMILES | HMGB1-induced TNF-alpha production (compound concentration: 3 uM) | HMGB1-induced TNF-alpha production [1]
CO[C@H]1CC=C2CCN3CCC4=C(CC(=O)OC4)[C@]23C1 [Dihydro-beta-erythroidine hydrobromide] | 97.9% | –
Cc1[nH]c2ccc(O)cc2c1CCN [2-Methyl-5-hydroxytryptamine maleate] | 122% | –
C=CCN1CCc2cccc3c2[C@H]1Cc1ccc(O)c(O)c1-3 [R(-)-N-Allylnorapomorphine hydrobromide] | 96.2% | –
COc1ccc(C(=O)N2CCCC2=O)cc1 [Aniracetam] | 107 ± 15% | –
COc1ccc(C(=O)N2CCCC2=O)cc1 | 89.9% | –
CCCCCCCCCCCCCC(=O)O[C@@H]1[C@@H](C)[C@@]2(O)[C@@H](C=C(CO)C[C@]3(O)C(=O)C(C)=C[C@@H]23)[C@@H]2C(C)(C)[C@]12OC(C)=O [Phorbol 12-myristate 13-acetate] | 119% | –
CCCCCCCCCCCCCC(=O)O[C@@H]1[C@@H](C)[C@@]2(O)[C@@H](C=C(CO)C[C@]3(O)C(=O)C(C)=C[C@@H]23)[C@@H]2C(C)(C)[C@]12OC(C)=O | 89.3% | –
O=C1/C(=C/c2ccccc2)C[C@@]2(O)[C@H]3Cc4ccc(O)c5c4[C@@]2(CCN3CC2CC2)[C@H]1O5 [BNTX maleate salt hydrate] | 49.6% | –
CC[C@@]1(O)C[C@H](O)c2c(cc3c(c2O)C(=O)c2c(O)ccc(O)c2C3=O)[C@H]1C(=O)OC | 70.8% | –
O=C(O)CCCc1ccc(N(CCCl)CCCl)cc1 | 97.4 ± 5.9% | –
O=C(O)CCCc1ccc(N(CCCl)CCCl)cc1 [Chlorambucil] | 103 ± 21% | –
CC[C@@H](C(N)=O)N1CCCC1=O [Levetiracetam] | 105 ± 20% | –
CC[C@@H](C(N)=O)N1CCCC1=O | 91.9% | –
NCC(O)c1cc(O)c(O)cc1F (stereo not drawn) [6-Fluoronorepinephrine hydrochloride] | 80.8% | –
CC(C)(C)[C@]1(O)CC2OC(=O)CC23C(=O)OC2OC(=O)[C@H](O)C231 (single isomer, unassigned; (-)) [(-)-Bilobalide] | – | 75.9%
CCS(=O)(=O)Nc1cccc(C(=C2CCCCC2)c2cnc[nH]2)c1 | 88.6% | –
CCCN1CCc2cccc3c2[C@H]1Cc1ccc(O)c(O)c1-3 [R(-)-Propylnorapomorphine hydrochloride] | 74.1% | –
Cc1nccc2c1[nH]c1ccccc12 [Harman] | – | 72.3%
Cc1nccc2c1[nH]c1ccccc12 [Harmane hydrochloride] | 108% | –
C[C@H]1O[C@@H](C[N+](C)(C)C)CS1 | 87.1% | –
CNc1ccc2oc(C[C@H]3O[C@@]4(CC[C@H]3C)O[C@H]([C@H](C)C(=O)c3ccc[nH]3)[C@H](C)C[C@H]4C)nc2c1C(=O)O [Calcimycin] | 327% | –
COc1ccc2c(c[n+](C)c3c4cc5c(cc4ccc23)OCO5)c1OC [Chelerythrine chloride] | 3.08% | –
c1ccc2c(c1)[I+]c1ccccc1-2 [Diphenyleneiodonium chloride] | 77.4% | –
CC(N)Cc1cccc(C(F)(F)F)c1 (single isomer, unassigned; (+)) [(+)-Norfenfluramine hydrochloride] | 104% | –
O=[N+]([O-])c1cc([As](=O)(O)O)ccc1O [Roxarsone] | 95% | –

SMILES | HMGB1-induced TNF-alpha production (compound concentration: 3 uM) | HMGB1-induced TNF-alpha production [1]
O=[N+]([O-])c1cc([As](=O)(O)O)ccc1O | 77.2% | –
CCN1C[C@]2(COC)[C@H](O)C[C@H](OC)[C@@]34[C@@H]5C[C@@]6(O)[C@H](OC(=O)c7ccccc7)[C@@H]5[C@@](OC(C)=O)([C@@H]([C@H](OC)[C@H]23)[C@@H]14)[C@@H](O)[C@@H]6OC [Aconitine] | 88.1% | –
CCN1C[C@]2(COC)[C@H](O)C[C@H](OC)[C@@]34[C@@H]5C[C@@]6(O)[C@H](OC(=O)c7ccccc7)[C@@H]5[C@@](OC(C)=O)([C@@H]([C@H](OC)[C@H]23)[C@@H]14)[C@@H](O)[C@@H]6OC | 86.1% | –
CCn1cc(C(=O)O)c(=O)c2cc3c(cc21)OCO3 | 79.2% | –
CCn1cc(C(=O)O)c(=O)c2cc3c(cc21)OCO3 [Oxolinic acid] | 93.8 ± 13% | –
C[C@]12CC[C@H](O)C[C@@H]1CC[C@@H]1[C@@H]2CC[C@]2(C)C(=O)CC[C@@H]12 [Epiandrosterone] | 77% | 70.7%
C[N+]1(C)[C@@H]2C[C@@H](OC(=O)[C@H](CO)c3ccccc3)C[C@H]1[C@@H]1O[C@@H]12 [(-)-Scopolamine methyl bromide] | 87.9% | –
C[N+]1(C)[C@@H]2C[C@@H](OC(=O)[C@H](CO)c3ccccc3)C[C@H]1[C@@H]1O[C@@H]12 | 85.5% | –
CN(C(=O)Cc1ccc(Cl)c(Cl)c1)C(CN1CCCC1)c1cccc(OCC(=O)O)c1 (stereo not drawn) [ICI 204,448 hydrochloride] | 94.9% | –
NCCc1ccc(O)cc1 [4-Hydroxyphenethylamine hydrochloride] | 111% | –
CN(C)C(=O)Oc1cc(OC(=O)N(C)C)cc(C(O)CNC(C)(C)C)c1 (stereo not drawn) [Bambuterol hydrochloride] | 65.7% | –
CN(C)C(=O)Oc1cc(OC(=O)N(C)C)cc(C(O)CNC(C)(C)C)c1 (stereo not drawn) | 83.1% | –
CN(C)C(=O)Oc1cc(OC(=O)N(C)C)cc(C(O)CNC(C)(C)C)c1 (stereo not drawn) [Bambuterol] | 85.3% | –
NC(=O)COc1c(F)cc(SCCNS(=O)(=O)c2ccccc2)cc1F | 88.6% | –
CCCN1CCC[C@H](c2cccc(O)c2)C1 [R(+)-3PPP hydrochloride] | 112% | –
CC[C@@]1([C@@H]2O[C@@H]([C@H]3O[C@@](O)(CO)[C@H](C)C[C@@H]3C)C[C@@H]2C)CC[C@H]([C@]2(C)CC[C@]3(C[C@H](O)[C@@H](C)[C@@H]([C@@H](C)[C@@H](OC)[C@H](C)C(=O)O)O3)O2)O1 [Monensin sodium salt] | 108% | –
CCN(C)C(=O)Oc1cccc([C@H](C)N(C)C)c1 [Rivastigmine] | 88.5 ± 12% | –
C[C@H](Cc1ccc2c(c1)OC(C(=O)O)(C(=O)O)O2)NC[C@H](O)c1cccc(Cl)c1 | 84.6% | –
CCC1(c2ccc(N)cc2)CCC(=O)NC1=O (stereo not drawn) [Glutethimide, para-amino] | 83.7% | –
CCC1(c2ccc(N)cc2)CCC(=O)NC1=O (stereo not drawn) | 84.9 ± 7.6% | –
C[N+]1(C)CCN(c2ccccc2)CC1 [1,1-Dimethyl-4-phenyl-piperazinium iodide] | 103% | –
C[N+]1(C)CCN(c2ccccc2)CC1 | 117% | –
COc1ccc2c3c([nH]c2c1)C(C)=NCC3 [Harmaline hydrochloride dihydrate] | 112% | 65.3%
CN1[C@@H]2CC[C@H]1C[C@@H](OC1c3ccccc3CCc3ccccc31)C2 [Deptropine citrate] | 97.9% | –
C[C@@H](N)Cc1cnc[nH]1 [Histamine, R(-)-alpha-methyl-, dihydrochloride] | 85.6% | –

SMILES | HMGB1-induced TNF-alpha production (compound concentration: 3 uM) | HMGB1-induced TNF-alpha production [1]
Clc1cc(I)cc(Cl)c1NC1=NCCN1 [p-Iodoclonidine hydrochloride] | 91.9% | –
C[C@@H]1O[C@@H](O[C@H]2C[C@@H](O)[C@]3(CO)[C@H]4[C@H](O)C[C@]5(C)[C@@H](C6=CC(=O)OC6)CC[C@]5(O)[C@@H]4CC[C@]3(O)C2)[C@H](O)[C@H](O)[C@H]1O [Ouabain] | 92.6 ± 6.3% | –
C[C@@H]1O[C@@H](O[C@H]2C[C@@H](O)[C@]3(CO)[C@H]4[C@H](O)C[C@]5(C)[C@@H](C6=CC(=O)OC6)CC[C@]5(O)[C@@H]4CC[C@]3(O)C2)[C@H](O)[C@H](O)[C@H]1O [(-)-Ouabain hydrate] | – | 53.9%
C[C@@H]1O[C@@H](O[C@H]2C[C@@H](O)[C@]3(CO)[C@H]4[C@H](O)C[C@]5(C)[C@@H](C6=CC(=O)OC6)CC[C@]5(O)[C@@H]4CC[C@]3(O)C2)[C@H](O)[C@H](O)[C@H]1O | 92.22 ± 0.29% | –
NCC(O)c1ccc(O)cc1 (racemic) [(+,-)-Octopamine hydrochloride] | 101% | –
NCC(O)c1ccc(O)cc1 (racemic) [(±)-Octopamine hydrochloride] | 104% | –
[N-]=[N+]=CC(=O)OC[C@H](N)C(=O)O | 79.1% | –
C[N+]1([O-])[C@@H]2CC[C@H]1C[C@@H](OC(=O)C(CO)c1ccccc1)C2 (stereo partly drawn) | 74.6% | –
NCCCP(=O)(O)O [3-Aminopropylphosphonic acid] | 111% | –
CNCCc1c[nH]c2ccc(O)cc12 [N-omega-Methyl-5-hydroxytryptamine oxalate salt] | 109% | –
CNC1=Nc2ccc(Cl)cc2C(c2ccccc2)=[N+]([O-])C1 | 92.1 ± 9.2% | –
CCC1(CC)C(=O)C=CNC1=O | 89.1% | –
CCC1(CC)C(=O)C=CNC1=O [Pyrithyldione] | 132% | –
COc1cc2c(c(OC)c1OC)-c1ccc(=O)c(O)cc1[C@@H](NC(C)=O)CC2 [Colchiceine] | – | 75.5%
COc1ccc(Cc2nccc3cc(OC)c(OC)cc23)cc1OC | 93.2% | –
COc1ccc(Cc2nccc3cc(OC)c(OC)cc23)cc1OC [Papaverine hydrochloride] | 107 ± 10% | –
NNC(=O)c1ccc(O)cc1 [4-Hydroxybenzhydrazide] | 84.6% | –
C=C(C)[C@H]1Cc2c(ccc3c2O[C@@H]2COc4cc(OC)c(OC)cc4[C@@H]2C3=O)O1 | 82.8% | –
C=C(C)[C@H]1Cc2c(ccc3c2O[C@@H]2COc4cc(OC)c(OC)cc4[C@@H]2C3=O)O1 [Rotenone] | 102% | 107%
COC(=O)C1=CCCN(C)C1 | 89.1% | –
COC(=O)C1=CCCN(C)C1 [Arecoline hydrobromide] | 97.2 ± 15% | –
N[C@@H](CCl)C(=O)O [beta-Chloro-L-alanine hydrochloride] | 75.5% | –
CC(C)(C)NCC(O)c1cc(Cl)c(N)c(Cl)c1 (stereo not drawn) [Clenbuterol] | 52.2% | –
CC(C)(C)NCC(O)c1cc(Cl)c(N)c(Cl)c1 (stereo not drawn) | 34.7% | –
CC(C)(C)NCC(O)c1cc(Cl)c(N)c(Cl)c1 (stereo not drawn) [Clenbuterol hydrochloride] | 32.2% | –
